The assay addresses biotinylated full-length human IGF-I receptor, captured on streptavidin (human), P08069. Nature of the assay: ELISA on immobilized IGF-I receptor, washes of 1-2 days. The following applies: remark: other sources report otherwise.

Results are given in words; binding and its absence hold for the method and conditions named. Some binding calls cover weakened binding; strength is not graded here.

B1: murine anti-IGF-I receptor antibody EM164 (antibody, V domains shown)
VH: QVQLQQSGAELVKPGASVKLSCKASGYTFTSYWMHWVKQRPGQGLEWIGEINPSNGRTNYNEKFKRKATLTVDKSSSTAYMQLSSLTSEDSAVYYFARGRPDYYGSSKWYFDVWGAGTTVTVS
VL: DVLMTQTPLSLPVSLGDQASISCRSSQSIVHSNVNTYLEWYLQKPGQSPKLLIYKVSNRFSGVPDRFSGSGSGTDFTLRISRVEAEDLGIYYCFQGSHVPPTFGGGTKLEIKR
modifications: here or on the partner: biotinylated with PEO-maleimide-biotin reagent (sites not given)
With B1, the binding entry is on record as “binds”.
